From publication PMC9355040 come the findings set out here.

Sequences of proteins named here, by UniProt entry; tags and fusion partners are left off. A change or cut given only in a name is not applied to a line headed by its entry.
UniProt Q9NZH0: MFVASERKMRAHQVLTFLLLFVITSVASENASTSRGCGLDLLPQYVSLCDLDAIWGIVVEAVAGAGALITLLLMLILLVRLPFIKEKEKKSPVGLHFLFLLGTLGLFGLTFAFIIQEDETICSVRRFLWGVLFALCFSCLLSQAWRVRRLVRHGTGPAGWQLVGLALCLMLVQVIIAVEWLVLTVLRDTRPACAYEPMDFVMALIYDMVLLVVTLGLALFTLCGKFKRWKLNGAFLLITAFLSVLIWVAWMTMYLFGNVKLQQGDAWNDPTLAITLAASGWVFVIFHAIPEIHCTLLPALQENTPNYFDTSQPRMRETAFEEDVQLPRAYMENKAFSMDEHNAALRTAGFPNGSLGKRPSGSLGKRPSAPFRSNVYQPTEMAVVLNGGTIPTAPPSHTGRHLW
UniProt P43119: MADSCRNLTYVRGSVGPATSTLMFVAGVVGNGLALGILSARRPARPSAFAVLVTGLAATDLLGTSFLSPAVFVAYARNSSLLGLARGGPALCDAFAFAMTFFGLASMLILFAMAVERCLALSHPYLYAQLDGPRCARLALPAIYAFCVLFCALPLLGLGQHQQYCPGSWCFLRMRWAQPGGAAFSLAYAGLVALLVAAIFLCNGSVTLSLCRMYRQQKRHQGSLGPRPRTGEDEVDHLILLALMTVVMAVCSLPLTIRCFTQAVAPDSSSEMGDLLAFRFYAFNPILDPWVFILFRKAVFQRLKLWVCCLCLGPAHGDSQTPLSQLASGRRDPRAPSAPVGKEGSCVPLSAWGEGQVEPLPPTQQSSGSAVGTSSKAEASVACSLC

Results are given in words; binding and its absence hold for the method and conditions named. Binding seen in cells or lysates may run through a third protein. Some entries that bind do so weakly or less than the wild type.

In assay [1] the target is GPRC5B receptor, cell-free synthesized, Strep-tagged, transferred from nanodiscs (human) (UniProt Q9NZH0). Nature of the assay: pull-down; HEK293T cells transfected with GPRC5B-Myc or HA-IP, then incubated 16 h with 0.5 uM GPCR/nanodiscs; lysis in 25 mM Tris-HCl pH 7.4, 150 mM NaCl, 1% NP-40, 1 mM EDTA, 5% glycerol; cleared lysate on magnetic Strep-Tactin beads 2 h at 4 °C (Strep-tag of the transferred GPCR as bait); western blot (called Co-IP in the methods).

For assay [2], the target named is prostacyclin receptor (IP), cell-free synthesized, Strep-tagged, transferred from nanodiscs (human) (UniProt P43119). Described as above.

“GPRC5B-Myc synthesized in transfected HEK293T cells (from UniProt Q9NZH0 29-403) (receptor)”: the binding result in assay [1] and in assay [2] was “binds” each time.

“HA-IP receptor synthesized in transfected HEK293T cells (from UniProt P43119 1-386)”: the binding entry in assay [1] is given as “binds”.
